These results are taken from PubChem BioAssay AID1487 (National Center for Advancing Translational Sciences (NCATS), 2009).

A short description of this experiment: qHTS Assay for Modulators of Lamin A Splicing. The following applies: HeLa LMNA splicing GFP/RFP minigene ratio, 48 h. The procedure, abridged:
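S3 HeLa stable clones carrying a lamin A-EGFP splicing minigene plus DsRed2 were seeded at 600 cells/well in Opti-MEM with 2% FBS, pin-dosed and incubated 48 h at 37°C. Acumen cytometry (488 nm) gave the GFP/RFP total-intensity ratio.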

Setting [1] is: measured here: RFP viability control channel.
[2] abbreviates: measured here: GFP splicing reporter channel.

The list shows a part of the results. Shown are side measurements of this screen, not its main read-out; they come without a call. Most of these compounds were active or inconclusive in the main read-out, so they are no random draw. The note in brackets gives the kind of curve behind each potency; many fits are weak.

Take `CCCCCCc1cc2cc(S(=O)(=O)c3ccc(C)cc3)c(=O)oc2cc1O`: the concentration at half-maximal activity (AC50) under setting [1] was 20 µM [rising, partial curve].
In the case of `C=CCN1C(=Nc2cccnc2)SCC1(O)c1ccc(C)cc1` (stereo unspecified), the AC50 by setting is: under setting [2], 0.631 µM [rising, full curve]; under setting [1], 2.51 µM [rising, full curve].
Regarding `CC1CCCN(c2nc3c(c(=O)n(C)c(=O)n3C)n2CCSc2nc3ccccc3s2)C1` (stereo unspecified), the AC50 is 11.2 µM [rising, partial curve, poor fit] under setting [2] and 15.8 µM [rising, partial curve] under setting [1].
For the compound `COc1ccc(CNc2ccnc(-c3cccnc3)n2)c(OC)c1`, under setting [2], the AC50 is 8.91 µM [falling, partial curve].
For the compound `COc1cccc(C(=O)N2CCCC(CCC(=O)NCc3ccc(F)c(F)c3)C2)c1` (stereo unspecified), the AC50 under setting [1] was 3.16 µM [falling, partial curve, poor fit].
Turning to `COc1cccc(-c2nccc(NCCc3c[nH]c4ccc(OC)cc34)n2)c1`, the AC50 is, setting by setting: under setting [2], 10 µM [falling, partial curve]; under setting [1], 11.2 µM [falling, partial curve].
Turning to `CCc1ccc(S(=O)(=O)NCCc2csc(-c3cccnc3)n2)s1`, the AC50 under setting [1] is 35.5 µM [rising, single point].
On the same count and under the same terms, with `N=C1c2c(cc(=O)n3c2[nH]c2ccccc23)CN1CCN1CCOCC1` the figure was 6.31 µM [falling, partial curve, poor fit].
On to `CCN(CC)S(=O)(=O)c1cccc(C(=O)Nc2nc3cc4c(cc3s2)OCCO4)c1`, for which the AC50 is 35.5 µM [rising, single point] under setting [2] and 8.91 µM [rising, partial curve] under setting [1].
Regarding `COc1cc(/C=C/C(=O)O)cc(S(=O)(=O)Nc2ccccc2Cl)c1OC`, the AC50 under setting [1] is 35.5 µM [falling, single point].
For `Cc1[nH]c(=S)[nH]c(=O)c1CCOc1ccccc1`, the concentration at half-maximal activity (AC50) under setting [1] was 35.5 µM [falling, partial curve, poor fit].
`CSc1nnc(Cc2sc(-c3ccccc3)nc2-c2ccccc2)o1`: the AC50 is, setting by setting: under setting [2], 12.6 µM [rising, single point]; under setting [1], 12.6 µM [rising, single point].
Regarding `CCCC(=O)Nc1ncnc2c1ncn2C1OC2COP(=O)(O)OC2C1OC(=O)CCC` (stereo unspecified), the AC50 under setting [2] was 0.141 µM [falling, single point] and the AC50 under setting [1] was 35.5 µM [falling, single point].
`CC(C)(C)N(Cc1ccccc1)C(=O)c1ccc2c(c1)OCCO2`: the AC50 under setting [1] was 10 µM [rising, partial curve].
With `Cc1nnc(N2CCOCC2)c2nn(-c3cccc(Cl)c3)c(C)c12`, the AC50 is 0.794 µM [rising, full curve, poor fit] under setting [2] and 0.794 µM [rising, full curve, poor fit] under setting [1].
Turning to `COc1ccccc1OCc1nc(C#N)c(N2CC(C)CC(C)C2)o1` (stereo unspecified), the AC50 is, setting by setting: under setting [2], 15.8 µM [falling, partial curve]; under setting [1], 17.8 µM [falling, partial curve].
As to `O=C1c2cc3ccccc3c(-c3ccccc3)c2C(=O)N1c1ccccn1`, the AC50 under setting [1] is 17.8 µM [rising, single point].
Regarding `COc1ccc(-n2nnnc2SCC(=O)Nc2ccc3c(c2)OCCO3)cc1OC`, the AC50 under setting [2] is 35.5 µM [falling, single point] and the AC50 under setting [1] is 35.5 µM [falling, single point].
`O=C(Nc1ccc(Cl)cc1)N1CCSc2ccccc21`: the AC50 under setting [1] was 17.8 µM [rising, single point].
In the case of `NC(=O)C1CCN(C(=O)COc2cccc3cccnc23)CC1`, the AC50 under setting [2] was 2.51 µM [falling, full curve, poor fit].
With `CNC(=O)c1c(NC(=O)c2ccc(S(=O)(=O)N3CCCCC3C)cc2)sc2c1CCC2` (stereo unspecified), the AC50 under setting [1] is 35.5 µM [falling, single point].
With `Cc1cc(NC(=O)c2ccco2)ncc1NC(=O)CCc1ccccc1`, the AC50 under setting [1] is 35.5 µM [rising, single point].
Turning to `Cc1cc(N=Cc2c(O)n(-c3cccc(Cl)c3)c(=O)c3ccccc23)no1`, the AC50 under setting [2] was 14.1 µM [rising, partial curve, poor fit] and the AC50 under setting [1] was 20 µM [rising, partial curve, poor fit].
In the case of `CC1=C(n2nnc([N+](=O)[O-])n2)C(c2cccnc2)C(C#N)=C(N)O1` (stereo unspecified), the AC50 is, setting by setting: under setting [2], 14.1 µM [rising, single point]; under setting [1], 14.1 µM [rising, single point].
As for `CCCC(=O)c1cc(F)c(N2CCN(S(=O)(=O)c3ccccc3)CC2)cc1C`, under setting [1], the AC50 is 35.5 µM [rising, single point].
As to `CS(=O)(=O)Nc1ccc(C2=NN(S(=O)(=O)c3ccccc3)C(c3cccs3)C2)cc1` (stereo unspecified), the AC50 runs as follows: under setting [2], 0.0126 µM [falling, full curve, poor fit]; under setting [1], 0.0178 µM [falling, full curve].
On to `CCN(CCO)Cc1cc(=O)oc2cc3c(cc12)CCC3`, for which, under setting [1], the AC50 is 2 µM [falling, partial curve, poor fit].
In the case of `Cc1cc(/C=N/n2cnnc2)c(C)n1-c1cc(Cl)ccc1Cl`, under setting [1], the AC50 was 22.4 µM [rising, single point].
With `CCOC(=O)c1cccc(NC(=O)CCc2c(C)nn(-c3ccc(N4CCOCC4)nn3)c2C)c1`, the AC50 under setting [2] was 0.00316 µM [falling, full curve, poor fit].
As for `CCN(C(=O)CSc1nc2n[nH]c(C)c2c(=N)n1-c1cccc(OC)c1)c1cccc(C)c1`, the AC50 under setting [2] was 31.6 µM [falling, single point] and the AC50 under setting [1] is 0.00316 µM [falling, full curve, poor fit].
Turning to `Cc1ccc(OCC(=O)Nc2ccc3c(c2)OCO3)c(C)c1`, the AC50 under setting [1] was 0.00501 µM [falling, full curve, poor fit].
The same measure, in the same setting: for `Cn1c(=O)c(=O)n(C)c2cc([N+](=O)[O-])c([N+](=O)[O-])cc21` the value was 14.1 µM [rising, partial curve].
As for `O=C(O)Cc1cc(I)c(Oc2ccc(O)c(I)c2)c(I)c1`, the AC50 was 12.6 µM [rising, single point] under setting [2] and 15.8 µM [rising, partial curve] under setting [1].
On to `O=C(/C=C/c1ccc([N+](=O)[O-])cc1)c1cccnc1`, for which the AC50 reads like this: under setting [2], 35.5 µM [falling, single point]; under setting [1], 25.1 µM [falling, single point].
`COc1ccc(Cl)cc1NC(=O)C(C)N1CCN(C/C=C/c2ccccc2)CC1` (stereo unspecified): the AC50 under setting [2] is 14.1 µM [rising, single point] and the AC50 under setting [1] is 31.6 µM [rising, single point].
As for `O=S(=O)(Cc1ccccc1Cl)N1CCN(Cc2ccc3c(c2)OCO3)CC1`, under setting [1], the AC50 is 17.8 µM [rising, single point].
Consider `CCOC(=O)c1ccc2[nH]c(CSc3nnc(-c4cccc(F)c4)n3C)cc(=O)c2c1`, for which, under setting [1], the AC50 is 35.5 µM [rising, single point].
Same read-out and setting: with `C(=C\c1ccccc1)/CN1CCN(Cc2nc(Cc3ccccc3)no2)CC1` the figure was 0.0316 µM [falling, full curve, poor fit]; with `Cc1ccc(/C=C2\C(=O)Nc3ccccc32)o1`, 10 µM [rising, partial curve]; with `O=C1CCCc2nc(N3CCN(Cc4ccccc4)CC3)ncc21`, 12.6 µM [rising, partial curve].
Take `O=C1c2ccccc2C2=Nc3ccccc3SC(c3ccccc3F)C12` (stereo unspecified): the AC50 reads like this: under setting [2], 14.1 µM [falling, single point]; under setting [1], 14.1 µM [falling, partial curve].
On to `O=C(/C=C/c1cccc([N+](=O)[O-])c1)c1cccs1`, for which the AC50 runs as follows: under setting [2], 28.2 µM [falling, single point]; under setting [1], 35.5 µM [falling, single point].
Regarding `N#Cc1ccc(CSc2nnc(-c3cccnc3)o2)cc1`, the AC50 is, setting by setting: under setting [2], 17.8 µM [rising, partial curve, poor fit]; under setting [1], 0.0224 µM [rising, full curve, poor fit].
`O=C(Nc1nc(-c2ccc3ccccc3c2)cs1)C1CCN(S(=O)(=O)c2cccs2)CC1`: the AC50 under setting [1] is 2.51 µM [rising, full curve].
With `CC(C)C(=O)Nc1ccc(C(=O)Nc2nnc(C(C)C)s2)cc1`, the AC50 under setting [2] was 11.2 µM [falling, single point] and the concentration at half-maximal activity (AC50) under setting [1] was 17.8 µM [falling, partial curve, poor fit].
`COc1cc(C(C)=O)cc(OC)c1O`: under setting [1], the AC50 is 0.00708 µM [falling, full curve, poor fit].
With `CCc1ccc(-c2nc(CN3CCC(C(=O)NCc4ccccc4OC)CC3)c(C)o2)cc1`, the AC50 reads like this: under setting [2], 3.55 µM [rising, full curve, poor fit]; under setting [1], 11.2 µM [rising, partial curve].
Take `COc1ccc(NC(=O)N2CCCC(c3nc(-c4ccc(C(C)C)cc4)no3)C2)cc1` (stereo unspecified): the AC50 under setting [2] is 5.62 µM [rising, full curve, poor fit] and the AC50 under setting [1] is 8.91 µM [rising, partial curve].
As to `CC(C)(C)NC(=O)c1ccc2c(c1)C1C3CCC(C3)C1C(c1ccccc1)N2` (stereo unspecified), the AC50 reads like this: under setting [2], 2.82 µM [rising, partial curve, poor fit]; under setting [1], 25.1 µM [rising, partial curve].
On to `COc1ccc(-n2nc(C(=O)NCC(=O)NCc3ccco3)c3ccccc3c2=O)cc1Cl`, for which the AC50 under setting [1] is 11.2 µM [rising, single point].
For `CC(Oc1ccc(C(=O)c2ccccc2)cc1)C(=O)Nc1ccc(S(N)(=O)=O)cc1` (stereo unspecified), the AC50 under setting [1] is 22.4 µM [rising, single point].
With `CCOc1ccc(C2C=C(c3ccc(C)cc3)Nc3nnnn32)cc1` (stereo unspecified), the AC50 under setting [1] was 12.6 µM [rising, partial curve, poor fit].
In the case of `Cc1ccc2nc(-c3ccc(NC(=O)CN4CCN(C(=O)c5ccco5)CC4)cc3)sc2c1`, under setting [1], the AC50 was 10 µM [rising, single point].
